Measured values: PubChem BioAssay AID1259354 (Paczesny and Yang Labs, IUPUI and University of Michigan, 2018)
About 1,800 (2.3%) of roughly 78,000 compounds were called active. Inconclusive means that the source gave no clear call. Such entries were picked first, then a sample of the others. Cut-off read from the data, not from the text of the source: active = inhibition above about 30%; inconclusive = mostly about 10% to 28%; inactive = weaker than that.

Sequences of proteins named here, by UniProt entry; tags and fusion partners are left off. A change or cut given only in a name is not applied to a line headed by its entry.
UniProt Q01638: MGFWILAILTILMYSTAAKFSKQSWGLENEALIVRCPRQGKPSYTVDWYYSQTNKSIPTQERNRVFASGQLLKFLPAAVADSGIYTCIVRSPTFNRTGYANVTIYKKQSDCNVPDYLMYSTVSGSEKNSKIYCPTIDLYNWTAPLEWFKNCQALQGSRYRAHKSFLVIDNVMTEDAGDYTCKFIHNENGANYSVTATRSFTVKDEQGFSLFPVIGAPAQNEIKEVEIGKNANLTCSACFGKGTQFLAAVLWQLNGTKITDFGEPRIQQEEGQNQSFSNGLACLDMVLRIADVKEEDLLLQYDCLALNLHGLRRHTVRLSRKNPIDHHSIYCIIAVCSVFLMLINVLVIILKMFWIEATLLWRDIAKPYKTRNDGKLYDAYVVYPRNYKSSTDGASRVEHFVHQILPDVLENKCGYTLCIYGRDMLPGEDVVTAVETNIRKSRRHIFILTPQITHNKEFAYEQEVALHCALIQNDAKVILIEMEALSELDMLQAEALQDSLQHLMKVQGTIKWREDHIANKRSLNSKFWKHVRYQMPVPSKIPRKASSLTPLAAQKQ

The compounds below were run against Interleukin-1 receptor-like 1 (Homo sapiens) (UniProt Q01638) (assay: blocks human ST2 binding to IL-33, primary screen, biochemical, AlphaLISA (AID 1259354)). Settings: AlphaLISA ST2-Fc/biotin-IL-33 interaction, 1 h; at 17 µM, active compounds read high.

SMILES	inhibition
COc1ccccc1-n1cc(-c2ccnc(N(C)Cc3cnccn3)n2)cn1	inconclusive: 11%
O=C(O)CCc1nc(-c2ccccc2)c(-c2ccccc2)o1	inconclusive: 12%
Cc1noc(-c2ccc(N3CCc4nnc(C5CCCO5)n4CC3)nc2)n1 (stereo unspecified)	inconclusive: 12%
Cc1cc(N(C)C)nc(Nc2ccc(NC(=O)c3cccc(F)c3)cc2)n1	inconclusive: 23%
O=C(CCSc1nc2ccccc2s1)NC1CCCCC1	inactive
CC(=C1C(=O)CC(C)(C)CC1=O)N1CCCC1	inconclusive: 20%
COc1ccc(C2C3=C(Nc4ncnn42)c2ccccc2OC3c2ccc(Cl)cc2)cc1 (stereo unspecified)	inactive
CC(=O)N(C[C@H]1O[C@@H](CC(=O)NC(C)C)[C@H](O)[C@@H]1O)C[C@H]1O[C@@H](CC(=O)NC(C)C)[C@H](O)[C@@H]1O	inconclusive: 15%
O=C(Cn1cnc2sc3c(c2c1=O)CCCC3)Nc1ccc(F)cc1F	inconclusive: 16%
Cc1nc2c(n1O)CCc1c-2no[n+]1[O-]	inconclusive: 12%
Clc1ccc2c(c1)C(N1CCNCC1)=Nc1ccccc1O2	inconclusive: 12%
CCn1c(CC2CCN(Cc3ccc(NC(C)=O)cc3)CC2)nn(C)c1=O	inconclusive: 13%
O=C(Oc1c(Cc2ccccc2)c(=O)oc2ccccc12)c1ccco1	inactive
Cc1c(CN(Cc2ccccn2)CC(C)C)c(=O)n(-c2ccccc2)n1C	inactive
CCSc1nc2c(c(=O)[nH]1)C(c1ccc(C(C)C)cc1)C1=C(CC(C)(C)CC1=O)N2 (stereo unspecified)	inconclusive: 12%
Cc1ccc(NC(=O)COc2ccc(C)cc2)cc1	inactive
CN(C(=O)c1ccccc1Cl)c1ccccc1	inconclusive: 12%
CC(=O)N1c2ccccc2C(=O)OC1c1cccnc1 (stereo unspecified)	inactive
NS(=O)(=O)c1ccc(NC(=O)c2ccc(-c3ccccc3)cc2)cc1	active: 30%
CCc1nc2sc3c(NCCN4CCOCC4)ncnc3c2c2c1CCCC2	inconclusive: 12%
Cc1cccc(-n2c3nc(=O)[nH]c(=O)c-3cc3c(Cl)cccc32)c1	inactive

SMILES	inhibition
O=C(NC1CCCCC1)c1ccc(NC2=NC3CS(=O)(=O)CC3S2)cc1 (stereo unspecified)	inactive
O=C1C[C@H]2CC[C@@H](CN1)N2Cc1ccc(-c2ccccc2Cl)o1	inconclusive: 18%
Cc1ccc(N2C(=O)C3CC=CC(C)C3C2=O)cc1C (stereo unspecified)	inactive
COc1ccc2nc3oc(C(=O)Nc4cccc(Cl)c4)cc3cc2c1	inconclusive: 18%
CCc1ccc(NC(=O)N2CCC(n3c(C)nc4cccnc43)CC2)cc1	inactive
CCN(CC)CC[C@H]1CN(C(=O)COC)CC[C@H]1CC(=O)O	inconclusive: 14%
CCc1ccc(N2C(=O)NC3c4ccccc4OC2(C)C3C)cc1 (stereo unspecified)	inconclusive: 12%
O=C1CCCC2=C1C(c1ccc(Cl)cc1)C1=C(N2)c2ccccc2C1=O (stereo unspecified)	inactive
COc1ccc(C2C3=C(CCCC3=O)Nc3nc(SCc4ccccc4F)[nH]c(=O)c32)cc1 (stereo unspecified)	inconclusive: 24%
COc1cc2c(cc1CN1CC3(CCNCC3)CC1C(=O)O)OCO2 (stereo unspecified)	inactive
COc1ccc(C(=O)NC2CC2)c(OC2CCN(CCc3ccccc3)CC2)c1	inactive
O=C1CCCC2=C1C(c1ccc(O)cc1)Nc1ccc3ccccc3c12 (stereo unspecified)	inactive
N#Cc1cc2c(N)c(C(=O)c3ccc(Cl)cc3)sc2nc1N	inconclusive: 24%
Cc1ccccc1-n1nc(C)c([C@H]2C=C[C@@H](O)C2)c1C	inactive
CCC(=O)Nc1ccc(OC)cc1OC	inconclusive: 20%
CCCOc1ccc(C2Nc3ccccc3NC3=C2C(=O)CC(c2cccs2)C3)cc1 (stereo unspecified)	inconclusive: 17%
CCc1cc(CNC(=O)Nc2nnc(C(C)(C)C)s2)on1	inconclusive: 12%
O=C(CCC1CCN(Cc2cccc3nonc23)CC1)Nc1ccc(F)c(Cl)c1	inconclusive: 10%
CCOc1ccc(N2CN=c3s/c(=C\c4ccc(OC)cc4)c(=O)n3C2)cc1	inconclusive: 27%
CN(Cc1nc2ccccc2n1C)C(=O)c1scc2c1OCCO2	inconclusive: 11%
NCCCCC(=O)O	inactive

SMILES	inhibition
CCN1C(=O)NC(=O)/C(=C\c2cn(CCOc3ccc(OC)cc3)c3ccccc23)C1=O	inconclusive: 18%
Cc1ccnc(NC(=O)C2CC(=O)N(c3ccc(Br)cc3)C2)c1 (stereo unspecified)	inconclusive: 16%
Cc1ccccc1CSCCNS(=O)(=O)c1ccccc1[N+](=O)[O-]	inconclusive: 10%
CC1(C)Cc2c(cnn2-c2ccc(F)cc2)C(NC(=O)Cn2cnc3ccccc32)C1 (stereo unspecified)	inconclusive: 13%
COc1cccc(Nc2cc(C)nc3ccc(Cl)cc23)c1	inactive
Fc1ccc(Nc2c(-c3ccccn3)nc3ccccn23)cc1	inconclusive: 18%
Cc1ccccc1/C=C1\SC(N2CCOCC2)=NC1=O	inactive
COc1cc(OC)c(-n2cc(-c3cc4ccccc4oc3=O)[nH]c2=O)cc1Cl	inconclusive: 22%
CCOc1ccc(C(=O)Nc2cc(Cl)ccc2OC)cc1[N+](=O)[O-]	inconclusive: 21%
COc1ccc(S(=O)(=O)N2C[C@@H]3C[C@H](C2)c2c(NC(=O)Nc4ccccc4)ccc(=O)n2C3)cc1	inconclusive: 19%
CCOc1cc(C2c3nc[nH]c3CCN2Cc2ccco2)ccc1OC (stereo unspecified)	inactive
CC(C)C(NS(=O)(=O)c1cccs1)C(=O)Nc1ccc(C(F)(F)F)cc1 (stereo unspecified)	inactive
C=CCC1(C#N)C(SC)=NC2=C(C(=O)CC(C)(C)C2)C1c1ccccc1 (stereo unspecified)	inconclusive: 26%
COc1ccccc1-n1cc(C(=O)N2CCCC(O)(CN(C)C)CC2)cn1 (stereo unspecified)	inconclusive: 15%
C=C(C)COc1ccc(C(=O)NC(CC)c2cnn(C)c2)cc1 (stereo unspecified)	inactive
Cc1cc(NC(=O)/C=C\c2ccc3c(c2)OCO3)nc2c1c(=O)oc1ccccc12	active: 43%
Cc1cc(C)n(CCCC(=O)N2CCO[C@@H]3CCCC[C@H]32)n1	inconclusive: 19%
CN(C)CCNC(=O)C1CCC(=O)N1Cc1ccccc1Cl (stereo unspecified)	inconclusive: 14%
Cc1ccc(C2C3=C(Nc4c2c(=O)[nH]c(=O)n4C)c2ccccc2C3=O)cc1Cl (stereo unspecified)	active: 32%

Compounds listed so far that have a cyano group:
SMILES	inhibition
N#Cc1cc2c(N)c(C(=O)c3ccc(Cl)cc3)sc2nc1N	inconclusive: 24%
C=CCC1(C#N)C(SC)=NC2=C(C(=O)CC(C)(C)C2)C1c1ccccc1 (stereo unspecified)	inconclusive: 26%
